Test results published in PubChem BioAssay AID2284372 (EPA ToxCast).
Inconclusive results, whose numbers are uncertain, are shown with a selection of clear calls. Potencies of inconclusive entries are doubtful fits and often do not repeat. Calls of active or inactive are those of the source. Rule for the calls: active = hit-call score of the fitted dose curve at least 0.9, where 1 is the maximum; inconclusive = response in the unintended direction; inactive = score below 0.9.

Protein sequences, listed by entry. Tags and fused reporters are not part of them. Lines headed by an entry give the natural chain unless they say otherwise; changes in a name come on top.
UniProt P04150: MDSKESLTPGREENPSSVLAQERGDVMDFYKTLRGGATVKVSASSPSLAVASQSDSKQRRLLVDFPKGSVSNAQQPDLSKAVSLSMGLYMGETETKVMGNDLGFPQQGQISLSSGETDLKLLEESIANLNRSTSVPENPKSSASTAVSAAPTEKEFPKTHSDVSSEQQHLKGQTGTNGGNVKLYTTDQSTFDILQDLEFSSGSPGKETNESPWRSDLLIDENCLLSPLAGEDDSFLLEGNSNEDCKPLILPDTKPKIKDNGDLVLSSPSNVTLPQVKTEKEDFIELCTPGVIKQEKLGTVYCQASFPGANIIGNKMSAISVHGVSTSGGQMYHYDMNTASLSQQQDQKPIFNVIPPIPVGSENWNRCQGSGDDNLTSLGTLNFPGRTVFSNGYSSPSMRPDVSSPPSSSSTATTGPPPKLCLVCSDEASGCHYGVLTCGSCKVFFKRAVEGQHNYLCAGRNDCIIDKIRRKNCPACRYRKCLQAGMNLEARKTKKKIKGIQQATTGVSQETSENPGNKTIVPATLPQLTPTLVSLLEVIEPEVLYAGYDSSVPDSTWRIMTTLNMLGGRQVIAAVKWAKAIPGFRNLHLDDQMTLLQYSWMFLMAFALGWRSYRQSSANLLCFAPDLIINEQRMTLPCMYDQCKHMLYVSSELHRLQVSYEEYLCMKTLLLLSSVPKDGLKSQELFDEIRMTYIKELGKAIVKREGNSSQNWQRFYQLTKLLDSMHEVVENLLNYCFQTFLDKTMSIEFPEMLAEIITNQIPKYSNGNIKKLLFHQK

target: Glucocorticoid receptor (Homo sapiens) (UniProt P04150); test: ATG_hGR_EcoTox2: Attagene TRANS-FACTORIAL EcoTox-2 HepG2 Assay for human Glucocorticoid Receptor (GR)
Method: ATG_EcoTox2 is a cell-based, multiplexed assay created by modifying the existing Attagene TRANS-FACTORIAL system to include a panel of nuclear receptors from some or all the following species: human (Homo sapiens), african clawed frog (Xenopus laevis), rainbow trout (Oncorhynchus mykiss), japanese medaka (Oryzias latipes), and zebrafish (Danio rerio). The ECOTOX2-FACTORIAL format uses HepG2, a human liver cell line, with measurements taken at 24 hours after chemical dosing in a 24-well plate. ATG_hGR_EcoTox2 is one of 29 assay components calculated in the ATG_EcoTox2 assay. It is designed to make measurements of mRNA induction, a form of inducible reporter, as detected with fluorescence intensity signals by Reverse transcription polymerase chain reaction (RT-PCR) and Capillary electrophoresis technology.The assay endpoint ATG_hGR_EcoTox2 was analyzed in the positive analysis fitting direction relative to DMSO as the negative control and baseline of activity. Using a type of inducible reporter, measures of mRNA for gain-of-signal activity can be used to understand the reporter gene at the transcription factor-level as they relate to the gene for glucocorticoid receptor. Furthermore, this assay endpoint can be referred to as a primary readout, because this assay has produced multiple assay endpoints where this one serves a reporter gene function. To generalize the intended target to other relatable targets, this assay endpoint is annotated to the nuclear receptor intended target family, where the subfamily is steroidal.
Human liver HepG2 cells are transiently transfected with multiple reporter transcription units (MRTUs) in 6-well plates using FuGene 6 reagent (Roche; 3 ml FuGene/1 mg DNA). The MRTU constructs are regulated by a cis-regulating element (promoter). Each RTU expresses a GAL4-UAS that regulates the transcription of a nearby target reporter gene sequence. A major difference between the CIS and TRANS system is that in CIS activities of endogenous TFs are measured, whereas the TRANS assay evaluates changes in activities of exogenous, chimeric NR-Gal4 proteins. […] At the end of 24 hour incubation, total RNA was isolated using TriZol reagent (Invitrogen). The isolated RNA is then reverse-transcribed using oligo(dT) primer and Mo-MLV reverse transcriptase (Invitrogen) with DNAse I (Ambion) treatment for 30 min. The one-tenth of the produced cDNA was amplified by PCR using Taq DNA polymerase (Invitrogen) and two reporter sequence-specific primers. The PCR products were fluorescently labeled by primer extension with 6-arboxyfluorescein (6-FAM) 5'-labeled reporter sequence-specific primer (2 min at 95 C, 20 s at 68 C and 10 min at 72 C) and these products were digested with 5U of HpaI (New England Biolabs) for 2h at 37 C. The fragments were purified using Qiaquick PCR columns (Qiagen), analyzed on an ABI 3130xL genetic analyzer (Applied Biosystems) with peak positions identified by using a set of X-rhodamine (ROX)-labeled MapMarker1000 molecular weight standards (BioVentures). The raw capillary electrophoresis data was processed using Attagraph software (Attagene).

SMILES	AC50	outcome
Cc1nc(-c2ccc(C(F)(F)F)cc2)sc1C(=O)NCc1ccc(OC(C)(C)C(=O)O)cc1	inconclusive: 0.401 µM	
C=C(c1ccc(C(=O)O)cc1)c1cc2c(cc1C)C(C)(C)CCC2(C)C	inconclusive: 5.55 µM	
CCCCOCN(C(=O)CCl)c1c(CC)cccc1CC		inactive
CC(c1cc2ccccc2s1)N(O)C(N)=O (configuration not stated)	active: 50 µM	
O=P(Oc1ccccc1)(Oc1ccccc1)Oc1ccccc1		inactive
O=S(=O)(O)C(F)(F)C(F)(F)C(F)(F)C(F)(F)C(F)(F)C(F)(F)F	inconclusive: 50 µM	
CC(C)(Oc1ccc(CCNC(=O)c2ccc(Cl)cc2)cc1)C(=O)O	inconclusive: 100 µM	
[Cl][Sn]([c]1ccccc1)([c]1ccccc1)[c]1ccccc1	inconclusive: 1.39 µM	
CC(C)OC(=O)C(C)(C)Oc1ccc(C(=O)c2ccc(Cl)cc2)cc1	inconclusive: 0.0147 µM	
CC(C)(Oc1ccc(Cl)cc1)C(=O)O		inactive
Cc1cccc(Nc2cc(Cl)nc(SCC(=O)O)n2)c1C	inconclusive: 26.2 µM	
CC(C)(Oc1ccc(C2CC2(Cl)Cl)cc1)C(=O)O (configuration not stated)	inconclusive: 100 µM	

2 of these compounds, set out differently:

| SMILES | AC50 | outcome |
| --- | --- | --- |
| CC(C)(Oc1ccc(Cl)cc1)C(=O)O |  | inactive |
| Cc1cccc(Nc2cc(Cl)nc(SCC(=O)O)n2)c1C | inconclusive: 26.2 µM |  |
